For at least one compound, name, drawing or mass did not settle the structure.
Molecular target: CFTR (Homo sapiens, UniProt P13569)
Assay: Short-circuit current measurements in T84 cells (bile acid-induced secretory current)
Type: cell-based
Parameters: short-circuit current provides a direct measure of apical CFTR Cl^− current; host or cells: T84 cells
Settings: bile acid added to both apical and basolateral bathing solutions
Protocol: T84 cells (ATCC CCL-248) are cultured in a 1:1 mixture of DMEM/Ham's F-12 medium supplemented with 10% FBS, 100 U/mL penicillin and 100 μg/mL streptomycin. Cells are grown on Snapwell inserts (Costar Corning, Horseheads, N.Y.) at 37° C. in 5% CO2/95% air and used 7-14 days after plating.
T84 cells are mounted in Ussing chambers and bathed in symmetrical HCO3^−-buffered solution containing (in mM): 120 NaCl, 5 KCl, 1 MgCl2, 1 CaCl2), 10 D-glucose, 5 HEPES and 25 NaHCO3 (pH 7.4). The solutions are aerated with 95% O2/5% CO2 and maintained at 37° C. In one study, for measurement of apical Cl^− conductance, a basolateral to apical Cl^− gradient is applied in which the basolateral hemichamber contains (in mM): 120 NaCl, 1 MgCl2, 1 CaCl2, 10 D-glucose, 5 HEPES and 25 NaHCO3 (pH 7.4); in the apical solution 120 mM NaCl is replaced by 5 mM NaCl and 115 mM Na-gluconate, and the basolateral membrane is permeabilized with 250 µg/ml amphotericin B. Short-circuit current is measured using an EVC4000 multichannel voltage clamp (World Precision Instruments, Sarasota, Fla.).

Protein sequences, listed by entry. Tags and fused reporters are not part of them.
UniProt P13569, whole entry: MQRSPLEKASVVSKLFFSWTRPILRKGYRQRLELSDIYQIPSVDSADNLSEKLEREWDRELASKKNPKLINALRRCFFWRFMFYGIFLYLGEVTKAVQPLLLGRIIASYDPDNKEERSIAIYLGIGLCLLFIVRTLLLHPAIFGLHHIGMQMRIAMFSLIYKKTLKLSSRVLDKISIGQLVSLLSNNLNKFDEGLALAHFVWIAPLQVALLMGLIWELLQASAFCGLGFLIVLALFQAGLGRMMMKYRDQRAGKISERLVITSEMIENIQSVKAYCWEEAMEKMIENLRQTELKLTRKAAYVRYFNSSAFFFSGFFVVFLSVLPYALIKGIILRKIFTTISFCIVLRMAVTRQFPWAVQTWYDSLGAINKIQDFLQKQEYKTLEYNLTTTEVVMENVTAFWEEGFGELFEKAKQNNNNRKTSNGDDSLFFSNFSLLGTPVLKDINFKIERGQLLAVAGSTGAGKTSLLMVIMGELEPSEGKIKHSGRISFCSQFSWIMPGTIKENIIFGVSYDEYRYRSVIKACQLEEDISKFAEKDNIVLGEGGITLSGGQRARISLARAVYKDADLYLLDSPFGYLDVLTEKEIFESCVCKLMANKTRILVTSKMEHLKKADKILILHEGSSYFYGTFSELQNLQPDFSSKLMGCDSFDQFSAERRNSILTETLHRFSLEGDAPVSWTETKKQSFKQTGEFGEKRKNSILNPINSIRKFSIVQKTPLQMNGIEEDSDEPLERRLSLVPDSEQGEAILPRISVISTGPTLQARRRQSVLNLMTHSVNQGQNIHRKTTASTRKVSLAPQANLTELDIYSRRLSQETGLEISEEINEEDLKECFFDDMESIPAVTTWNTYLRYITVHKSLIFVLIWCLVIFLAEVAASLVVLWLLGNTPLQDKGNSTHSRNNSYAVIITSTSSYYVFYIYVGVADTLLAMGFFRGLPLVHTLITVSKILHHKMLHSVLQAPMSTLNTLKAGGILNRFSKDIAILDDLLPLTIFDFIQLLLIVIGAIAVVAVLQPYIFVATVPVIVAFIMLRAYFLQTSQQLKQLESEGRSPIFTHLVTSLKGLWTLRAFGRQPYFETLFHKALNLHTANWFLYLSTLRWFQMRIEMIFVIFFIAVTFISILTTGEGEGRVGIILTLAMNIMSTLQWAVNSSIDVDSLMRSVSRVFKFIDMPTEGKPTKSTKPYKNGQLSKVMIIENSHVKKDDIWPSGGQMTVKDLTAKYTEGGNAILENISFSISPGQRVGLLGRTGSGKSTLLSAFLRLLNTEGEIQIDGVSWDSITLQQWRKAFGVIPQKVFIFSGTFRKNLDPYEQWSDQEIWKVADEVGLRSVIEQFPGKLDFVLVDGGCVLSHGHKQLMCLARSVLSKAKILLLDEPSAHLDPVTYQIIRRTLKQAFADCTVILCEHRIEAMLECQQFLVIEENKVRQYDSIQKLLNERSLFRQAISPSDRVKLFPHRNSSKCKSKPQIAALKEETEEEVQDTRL

Row | Structure (SMILES) | prosecretory response (increase in short-circuit current) to bile acid
1 | C[C@H](CCC(=O)O)[C@H]1CC[C@H]2[C@@H]3CC[C@@H]4C[C@H](O)CC[C@]4(C)[C@H]3C[C@H](O)[C@]12C [DCA, deoxycholic acid] | robust secretory current
2 | C[C@H](CCC(=O)O)[C@H]1CC[C@H]2[C@@H]3CC[C@@H]4C[C@H](O)CC[C@]4(C)[C@H]3CC[C@]12C [lithocholic acid] | only a small transient response
3 | C[C@H](CCC(=O)O)[C@H]1CC[C@H]2[C@@H]3[C@@H](O)C[C@@H]4C[C@H](O)CC[C@]4(C)[C@H]3CC[C@]12C [ursodeoxycholic acid] | No increase in short-circuit current
